From PMC4177678
Results are given in words; binding and its absence hold for the method and conditions named. In cells and extracts the contact can be indirect.

Amino acid sequences for entries named in this document (tags omitted). Residues count along the entry.
GST-WC-1 aa 1-300-6xHis (Q01371, residues 1-300): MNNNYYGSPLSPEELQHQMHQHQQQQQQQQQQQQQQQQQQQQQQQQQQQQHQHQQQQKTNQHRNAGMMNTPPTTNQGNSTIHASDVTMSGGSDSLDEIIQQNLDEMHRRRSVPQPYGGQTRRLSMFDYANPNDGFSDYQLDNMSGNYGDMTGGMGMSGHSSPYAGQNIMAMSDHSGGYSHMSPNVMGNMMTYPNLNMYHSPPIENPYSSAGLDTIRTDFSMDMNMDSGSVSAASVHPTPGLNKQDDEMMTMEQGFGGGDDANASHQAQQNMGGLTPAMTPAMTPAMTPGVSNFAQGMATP
GST-WC-1 aa 100-300-6xHis (Q01371, residues 100-300): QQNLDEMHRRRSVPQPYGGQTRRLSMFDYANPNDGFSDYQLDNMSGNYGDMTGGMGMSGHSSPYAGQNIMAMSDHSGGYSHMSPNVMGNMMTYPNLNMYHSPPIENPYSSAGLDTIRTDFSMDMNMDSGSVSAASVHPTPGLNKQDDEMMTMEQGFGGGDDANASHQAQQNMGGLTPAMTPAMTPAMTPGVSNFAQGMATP

Columns and labels:
[1] = molecular target: GST-WC-1 aa 1-300-6xHis (Neurospora) (UniProt Q01371); test: pull-down; purified GST, GST-aa1-300 or GST-aa100-300 on glutathione beads incubated with 2 milligrams of cleared Neurospora lysate (SWI1 C-tagged with V5), rotated at least 2 hours, washed three times; Western blot; only the target purified
[2] = molecular target: GST-WC-1 aa 100-300-6xHis (Neurospora) (UniProt Q01371); test: as above

B1: GATA Zn finger factor SRE (protein, UniProt Q1K8E7 1-587)
chain: MALPDDTRLMNNQTSIEGNSAPDRMALPSRPPPPTASNEPPEHESTGPVDEAASKSESGLSPNSKKAGHAAQSPSGRKKSPKIQNAQPAQSPAETVGVVNVATLGLVPSVQGHAGQVCSNCGTTHTPLWRRSPQGAIICNACGLYLKARNAARPANIRRPPSVMASNVRQAAAKLSPKKATAPLLPSNPGATYVAADQTPSGSCPGGGRCNGTGGAEGCGGCPAYNNRVSKSASLNVLKCQGAAAASSKKPQAAEGSGEEPTEMDITALHVQSQNTTVVIACQNCGTTITPLWRRDEAGHTICNACGLYYKLHGVHRPVTMKKAIIKRRKRVIPAAGGDAEIEPSEAPDSPPATSEPPMEKGTVNEDGSVNLGIRRRSVRPLTLVPEDELRRNRQASPLSSAALGQYHSSHTNQPHHGAHASLTYENRLAPIHSLALPVDRQASISPASFLSPSRKRSISAVENEPSSHNDNESHKRLSSIKSILNPMPSSEIHREVSPADQLRMQPASRSPAMSSLTPAHSPGSFSNSTVIGTPTSAPILRSASRDTHNDSERMKAERRAALEREAEMMRELLAAKERELAELGYD
[1]
  binding: no binding
[2]
  binding: no binding
